Measurements as given in publication PMC3534080.
These are yes or no findings as the source states them, for the method shown. Binding seen in cells or lysates may run through a third protein. Some results given as binding are weak or reduced against the parent protein; the word gives no strength.

How the values were obtained:
Assay in all cases: co-IP; HEK293 cells transiently overexpressing pairs of CDCP1 variants; lysis in 1% Triton X-100 buffer; immunoprecipitation with the antibody Cub1 (does not bind amino-terminally truncated CDCP1); blot with antibodies against the intracellular or the intra- and extracellular domain
[1] = biological target: Cub domain containing protein 1 (CDCP1), wild type, full length (UniProt Q9H5V8)
CDCP1 (1–701) = CDCP1 (1–701) (UniProt Q9H5V8)
CDCP1 (ΔK693–697) = CDCP1 (ΔK693–697) (UniProt Q9H5V8)
CDCP1 (1–708) = CDCP1 (1–708) (UniProt Q9H5V8)
CDCP1 (C689,690G) = CDCP1 (C689,690G) (UniProt Q9H5V8)
[2] = biological target: CDCP1 (1–690, then Val-Lys-Arg-Stop) (UniProt Q9H5V8)

Measured: binding

CDCP1 ΔNT370 (from UniProt Q9H5V8 370-836) (domain or fragment)
binds: [1]

B1: CDCP1 ΔNT660 (domain or fragment, UniProt Q9H5V8 660-836)
chain: TPRTVDLTVILIAAVGGGVLLLSALGLIICCVKKKKKKTNKGPAVGIYNDNINTEMPRQPKKFQKGRKDNDSHVYAVIEDTMVYGHLLQDSSGSFLQPEVDTYRPFQGTMGVCPPSPPTICSRAPTAKLATEEPPPRSPPESESEPYTFSHPNNGDVSSKDTDIPLLNTQEPMEPAE
binds: all assays above
